Measured values reported in patent US20220024891A1 (The Board of Regents of the University of Texas System, priority 2018, published 2022).
At least one structure is not confirmed: it was looked up by name or label, or the drawing left a doubt.

Columns and labels:
[1] = tested on: colon polyps in CPC;Apc mice; assay: CPC;Apc mice on high fat diet; assay type: in vivo, mouse; details: high fat diet for about 10 weeks
[2] = tested on: colorectal tumors in CPC;Apc mice; assay: Anti-tumor effects in CPC;Apc mice; assay type: in vivo, mouse; details: 20 mg/kg/injection intraperitoneally twice a week for 90 days
Method: These mice carry a CDX2P-NLS Cre recombinase transgene and a loxP-targeted Apc allele that deletes exon 14, leading to a frame shift at codon 580 and a truncated APC protein. […] Weights were measured every 15 days over the treatment period. These studies were performed according to the guidelines of the UT Southwestern Institutional Animal Care and Use Committee.

[3] = tested on: DLD-1 cells; assay: Sensitivity of DLD-1 cells to TASIN-1 under serum, lipoprotein, cholesterol or EBP overexpression conditions; assay type: cell-based, human
[4] = tested on: DLD1 tumors; assay: Xenograft mouse model, DLD1 tumors; assay type: in vivo
[5] = tested on: HCT116 cells; assay: Soft agar growth, HCT116; assay type: cell-based, human; details: sustained treatment
[6] = tested on: HCT116 (WT APC) xenografts; assay: Xenograft mouse model, HCT116 xenografts; assay type: in vivo
[7] = tested on: cholesterol biosynthesis in HCT116 and RKO cells; assay: Endogenous cholesterol biosynthesis (14C acetate), wild type APC cells; assay type: cell-based, human; details: 40h incubation, 8 hours 14C acetate; cells expressing wild type APC
[8] = tested on: cholesterol biosynthesis in DLD1 and HT29 cells; assay: Endogenous cholesterol biosynthesis (14C acetate), truncated APC cells; assay type: cell-based, human; details: 40h incubation, 8 hours 14C acetate; cells expressing truncated APC
[9] = tested on: DLD1 cells; assay: Soft agar growth, DLD1; assay type: cell-based, human; details: sustained treatment

COc1ccc(S(=O)(=O)N2CCC(N3CCC(C)CC3)CC2)cc1 [TASIN-1]
polyp formation and size [1]: reduced polyp formation and size | size of benign tumors (polyps) [2]: much smaller compared to the control group | tumor formation in the colon [2]: significant reduction in tumor formation in the colon | effect of EBP overexpression on sensitivity ([3]; DLD-1 cells overexpressing EBP): overexpression of EBP confers resistance to TASIN-1 | activity by serum condition ([3]; DLD-1 cells, serum media conditions): active only in 0.2% serum or 2% lipoprotein deficient serum (LPPS) media conditions | rescue of cell death by LDL or cholesterol ([3]; purified lipoproteins or cholesterol added to the medium): exogenous addition of LDL or cholesterol rescues TASIN-1 induced cell death | cleaved caspase 3 in excised tumors (immunohistochemistry) ([4]; TASIN-1 treated DLD1 tumors compared with control tumors): significant increase in the apoptotic marker, cleaved caspase 3 | size of tumor xenografts and tumor growth rates ([4]; nude mice, 40 mg/kg intraperitoneally twice daily for 18 days, versus solvent control): reduced the size of tumor xenografts and reduced tumor growth rates | soft agar growth [5]: not in HCT116 cells | tumor growth [6]: did not inhibit tumor growth | cholesterol biosynthesis [7]: not in cells expressing wild type APC | cholesterol biosynthesis [8]: reduces cholesterol biosynthesis in cells expressing truncated APC | soft agar growth [9]: inhibited soft agar growth in DLD1
